Experimental data from ChEMBL document CHEMBL1201862, “PubChem BioAssay data set” (2004).
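Assay format: 96-well plates, 48-hour exposure. The concentration for 50% growth inhibition is given as GI50.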 Calls of active or inactive are those of the source. No stated cut-off is given here; in the data, active = GI50 up to about 1.1 µM and inactive = higher.

What was measured:
M14 = test: DTP human tumour cell line panel, 48 h
SK-MEL-5 = test: DTP human tumour cell line panel, 48 h

CN[C@H]1C[C@@H]2O[C@@](C)([C@H]1OC)n1c3ccccc3c3c4c(c5c6ccccc6n2c5c31)C(=O)NC4
GI50 (M14): active: 9.89 nM | GI50 (SK-MEL-5): active: 11.1 nM
